Assay results taken from paper doi:10.1101/291294.
Results are given in words; binding and its absence hold for the method and conditions named. Binding seen in cells or lysates may run through a third protein. Some binding calls cover weakened binding; strength is not graded here.

Amino acid sequences for entries named in this document (tags omitted). A change or cut given only in a name is not applied to a line headed by its entry. Residues count along the entry.
UniProt O95166, whole entry: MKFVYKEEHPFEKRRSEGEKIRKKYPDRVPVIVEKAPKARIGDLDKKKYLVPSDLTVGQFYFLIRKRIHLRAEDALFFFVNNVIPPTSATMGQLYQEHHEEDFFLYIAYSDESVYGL
UniProt P98170, whole entry: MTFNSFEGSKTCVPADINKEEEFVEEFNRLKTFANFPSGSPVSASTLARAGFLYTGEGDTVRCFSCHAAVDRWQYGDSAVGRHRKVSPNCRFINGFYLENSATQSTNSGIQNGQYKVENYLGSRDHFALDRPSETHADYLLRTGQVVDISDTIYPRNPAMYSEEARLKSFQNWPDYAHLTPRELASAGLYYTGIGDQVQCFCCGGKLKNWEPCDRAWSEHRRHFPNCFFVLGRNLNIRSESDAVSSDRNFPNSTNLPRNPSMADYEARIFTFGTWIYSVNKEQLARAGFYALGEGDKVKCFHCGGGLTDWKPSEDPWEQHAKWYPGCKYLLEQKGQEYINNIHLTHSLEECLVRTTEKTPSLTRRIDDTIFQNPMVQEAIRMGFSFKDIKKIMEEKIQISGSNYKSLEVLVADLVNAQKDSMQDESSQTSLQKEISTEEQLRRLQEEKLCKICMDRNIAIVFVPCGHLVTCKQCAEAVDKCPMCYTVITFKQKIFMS
UniProt P98170, 1-123: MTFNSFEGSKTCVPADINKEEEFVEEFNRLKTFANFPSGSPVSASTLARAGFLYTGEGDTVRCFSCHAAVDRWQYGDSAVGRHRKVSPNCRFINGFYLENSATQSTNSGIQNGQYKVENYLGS
UniProt P98170, 1-261: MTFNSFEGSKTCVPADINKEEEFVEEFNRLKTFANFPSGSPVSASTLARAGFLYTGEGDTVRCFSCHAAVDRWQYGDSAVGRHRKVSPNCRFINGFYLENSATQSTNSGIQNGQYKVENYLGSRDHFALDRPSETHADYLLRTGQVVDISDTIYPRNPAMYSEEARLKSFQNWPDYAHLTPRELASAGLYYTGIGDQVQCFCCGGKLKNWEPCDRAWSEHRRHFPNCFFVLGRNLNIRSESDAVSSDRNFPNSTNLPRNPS
UniProt P98170, 1-350: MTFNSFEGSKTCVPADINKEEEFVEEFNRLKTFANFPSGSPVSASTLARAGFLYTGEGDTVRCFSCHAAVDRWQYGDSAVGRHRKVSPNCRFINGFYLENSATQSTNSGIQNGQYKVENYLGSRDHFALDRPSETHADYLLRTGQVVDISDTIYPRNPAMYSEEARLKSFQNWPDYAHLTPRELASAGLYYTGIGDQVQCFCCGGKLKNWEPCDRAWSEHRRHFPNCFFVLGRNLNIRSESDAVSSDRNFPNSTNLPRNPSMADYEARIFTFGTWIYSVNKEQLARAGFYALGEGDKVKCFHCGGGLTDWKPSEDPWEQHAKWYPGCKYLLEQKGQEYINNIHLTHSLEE
UniProt P98170, 124-261: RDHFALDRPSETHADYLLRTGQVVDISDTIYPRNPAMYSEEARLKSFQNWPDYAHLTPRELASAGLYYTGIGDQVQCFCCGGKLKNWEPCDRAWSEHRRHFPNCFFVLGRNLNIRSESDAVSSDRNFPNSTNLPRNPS
UniProt P98170, 124-350: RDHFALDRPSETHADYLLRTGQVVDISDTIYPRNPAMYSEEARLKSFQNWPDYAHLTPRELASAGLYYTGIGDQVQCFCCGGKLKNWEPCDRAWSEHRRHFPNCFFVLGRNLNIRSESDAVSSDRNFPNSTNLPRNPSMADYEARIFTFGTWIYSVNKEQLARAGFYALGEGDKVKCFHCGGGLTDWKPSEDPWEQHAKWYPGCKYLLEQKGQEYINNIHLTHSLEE
UniProt P98170, 262-350: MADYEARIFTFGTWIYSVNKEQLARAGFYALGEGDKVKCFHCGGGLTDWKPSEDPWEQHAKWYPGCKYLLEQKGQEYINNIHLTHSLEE
UniProt P98170, 1-449, stated change not applied: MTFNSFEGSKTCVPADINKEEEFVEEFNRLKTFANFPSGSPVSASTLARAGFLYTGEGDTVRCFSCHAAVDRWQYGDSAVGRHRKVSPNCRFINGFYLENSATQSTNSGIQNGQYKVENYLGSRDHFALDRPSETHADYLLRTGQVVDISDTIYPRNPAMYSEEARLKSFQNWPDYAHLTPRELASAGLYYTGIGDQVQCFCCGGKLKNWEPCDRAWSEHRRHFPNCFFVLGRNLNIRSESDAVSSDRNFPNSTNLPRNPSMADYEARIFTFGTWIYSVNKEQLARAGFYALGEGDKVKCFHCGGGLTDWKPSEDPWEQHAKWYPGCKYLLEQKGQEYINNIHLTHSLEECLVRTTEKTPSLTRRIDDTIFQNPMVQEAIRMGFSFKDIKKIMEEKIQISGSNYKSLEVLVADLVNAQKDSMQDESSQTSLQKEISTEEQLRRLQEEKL
UniProt P98170, 262-497, stated change not applied: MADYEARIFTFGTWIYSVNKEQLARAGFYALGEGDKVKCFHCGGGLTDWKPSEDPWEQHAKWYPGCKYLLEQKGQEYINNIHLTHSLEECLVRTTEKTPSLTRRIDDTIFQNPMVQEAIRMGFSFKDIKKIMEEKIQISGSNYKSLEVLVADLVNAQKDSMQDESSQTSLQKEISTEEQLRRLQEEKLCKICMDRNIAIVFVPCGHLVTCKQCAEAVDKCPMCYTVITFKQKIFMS
UniProt P98170, 331-497, stated change not applied: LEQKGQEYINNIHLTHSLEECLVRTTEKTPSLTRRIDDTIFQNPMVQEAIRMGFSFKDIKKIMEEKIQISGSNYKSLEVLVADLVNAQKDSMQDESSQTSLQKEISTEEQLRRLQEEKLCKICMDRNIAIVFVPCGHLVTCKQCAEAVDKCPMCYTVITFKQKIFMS
UniProt P56962, whole entry: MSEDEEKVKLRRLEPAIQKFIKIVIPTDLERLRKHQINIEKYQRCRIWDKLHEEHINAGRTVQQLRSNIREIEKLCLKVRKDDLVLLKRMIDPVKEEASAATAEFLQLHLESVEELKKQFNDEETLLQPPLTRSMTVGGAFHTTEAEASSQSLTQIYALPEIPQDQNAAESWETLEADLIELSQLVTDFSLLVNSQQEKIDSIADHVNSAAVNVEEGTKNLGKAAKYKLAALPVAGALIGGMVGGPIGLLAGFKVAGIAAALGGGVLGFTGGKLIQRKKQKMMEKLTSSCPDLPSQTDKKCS
UniProt Q6ZNE5, whole entry: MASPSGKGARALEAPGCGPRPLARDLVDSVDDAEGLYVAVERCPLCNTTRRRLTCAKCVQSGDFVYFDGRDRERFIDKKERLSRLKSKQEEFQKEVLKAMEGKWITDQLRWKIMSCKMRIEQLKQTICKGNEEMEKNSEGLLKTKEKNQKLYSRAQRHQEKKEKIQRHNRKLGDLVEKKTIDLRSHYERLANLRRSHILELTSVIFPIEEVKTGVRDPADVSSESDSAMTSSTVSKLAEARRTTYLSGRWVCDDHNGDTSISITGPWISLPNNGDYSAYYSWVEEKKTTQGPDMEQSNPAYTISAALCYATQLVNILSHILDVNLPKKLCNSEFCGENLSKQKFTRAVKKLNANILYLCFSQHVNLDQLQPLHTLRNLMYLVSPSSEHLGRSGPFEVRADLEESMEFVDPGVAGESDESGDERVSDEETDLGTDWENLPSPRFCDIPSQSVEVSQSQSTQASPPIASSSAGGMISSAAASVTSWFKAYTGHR
UniProt Q9Y4G2, whole entry: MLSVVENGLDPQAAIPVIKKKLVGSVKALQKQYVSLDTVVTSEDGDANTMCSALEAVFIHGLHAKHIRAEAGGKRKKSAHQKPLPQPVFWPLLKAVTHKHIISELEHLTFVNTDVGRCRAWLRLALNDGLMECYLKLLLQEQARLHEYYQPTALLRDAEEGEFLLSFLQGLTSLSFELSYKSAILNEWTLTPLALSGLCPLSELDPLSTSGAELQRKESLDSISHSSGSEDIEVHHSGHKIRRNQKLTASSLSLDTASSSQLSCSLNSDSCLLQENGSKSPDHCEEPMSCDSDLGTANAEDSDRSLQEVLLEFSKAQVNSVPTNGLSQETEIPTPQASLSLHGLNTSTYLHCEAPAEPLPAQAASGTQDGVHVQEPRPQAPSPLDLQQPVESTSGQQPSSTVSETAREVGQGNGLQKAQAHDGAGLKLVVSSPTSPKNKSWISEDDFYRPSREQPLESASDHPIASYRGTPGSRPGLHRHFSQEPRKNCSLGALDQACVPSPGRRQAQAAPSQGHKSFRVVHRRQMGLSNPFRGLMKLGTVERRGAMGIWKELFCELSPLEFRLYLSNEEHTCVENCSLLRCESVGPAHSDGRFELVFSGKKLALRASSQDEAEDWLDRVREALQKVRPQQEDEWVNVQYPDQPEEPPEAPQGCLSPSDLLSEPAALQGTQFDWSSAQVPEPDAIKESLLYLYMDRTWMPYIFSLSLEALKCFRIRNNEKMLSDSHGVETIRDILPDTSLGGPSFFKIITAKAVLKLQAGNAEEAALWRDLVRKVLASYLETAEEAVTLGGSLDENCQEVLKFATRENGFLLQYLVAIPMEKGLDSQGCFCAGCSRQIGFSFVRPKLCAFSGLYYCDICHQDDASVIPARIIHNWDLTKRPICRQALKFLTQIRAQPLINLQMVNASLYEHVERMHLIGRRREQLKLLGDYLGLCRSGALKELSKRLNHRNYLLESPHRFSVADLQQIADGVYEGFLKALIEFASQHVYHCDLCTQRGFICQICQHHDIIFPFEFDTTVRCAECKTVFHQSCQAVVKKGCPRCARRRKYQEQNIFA

What follows are substances tested against GST-tagged human GABARAP (human) (UniProt O95166) (assay: pull-down).
With “HA-XIAP BIR1 (aa 1-123) (from UniProt P98170 1-123) (domain or fragment)” the binding was “binds”.
For “HA-XIAP BIR1-2 (aa 1-261) (from UniProt P98170 1-261) (domain or fragment)”, the binding was “binds”.
“HA-XIAP BIR1-2-3 (aa 1-350) (from UniProt P98170 1-350) (domain or fragment)” was tested, and the binding was “binds”.
For “HA-XIAP BIR2 (aa 124-261) (from UniProt P98170 124-261) (domain or fragment)”, the binding was “binds”.
“HA-XIAP BIR2-3 (aa 124-350) (from UniProt P98170 124-350) (domain or fragment)” was tested, and the binding was “binds”.
With “HA-XIAP FL (aa1-497) (from UniProt P98170 1-497)” the binding was “binds”.
With “HA-XIAP H467A (from UniProt P98170 1-497)” the binding was “binds”.
With “HA-XIAP Δ2BIR (aa262-497) (from UniProt P98170 262-497) (domain or fragment)” the binding was “binds”.
For “HA-XIAP ΔBIR (aa 331-497) (from UniProt P98170 331-497) (domain or fragment)”, the binding was “binds”.
With “HA-XIAP-BIR3 (aa 262-350) (from UniProt P98170 262-350) (domain or fragment)” the binding was “no binding”.
With “HA-XIAPΔRING (aa 1-449) (from UniProt P98170 1-449) (domain or fragment)” the binding was “binds”.

The substances below were run against GST-tagged human XIAP (human) (UniProt P98170) (assay: pull-down).
In the case of GFP-STX17 (from UniProt P56962 1-302), the binding was “binds”.
In the case of “GFP-fusion of ATG14 (from UniProt Q6ZNE5 1-492)”, the binding was “no binding”.
“GFP-fusion of PLEKHM1 (from UniProt Q9Y4G2 1-1056)” was tested, and the binding was “no binding”.
